{
  "sequences": {"note": "Chains of the proteins cited; added tags and fusions are not shown.", "UniProt P06241, whole entry, species assumed": "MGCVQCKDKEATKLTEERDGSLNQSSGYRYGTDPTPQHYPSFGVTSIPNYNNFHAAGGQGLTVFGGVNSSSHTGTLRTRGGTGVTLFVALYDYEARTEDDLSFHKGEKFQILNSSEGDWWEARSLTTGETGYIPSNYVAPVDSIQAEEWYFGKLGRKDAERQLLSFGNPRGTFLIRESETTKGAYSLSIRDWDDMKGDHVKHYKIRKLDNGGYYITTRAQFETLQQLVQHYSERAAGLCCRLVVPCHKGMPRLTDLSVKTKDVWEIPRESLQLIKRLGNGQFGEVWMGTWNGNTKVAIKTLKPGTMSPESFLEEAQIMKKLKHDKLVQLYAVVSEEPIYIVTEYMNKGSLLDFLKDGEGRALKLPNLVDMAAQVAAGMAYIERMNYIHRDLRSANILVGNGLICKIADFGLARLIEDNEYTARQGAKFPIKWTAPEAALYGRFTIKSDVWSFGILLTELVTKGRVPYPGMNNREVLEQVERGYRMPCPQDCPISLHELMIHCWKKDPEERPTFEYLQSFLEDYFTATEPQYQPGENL"},
  "source": "patent US7049116B2",
  "about": "“Engineered protein kinases which can utilize modified nucleotide triphosphate substrates” (Princeton University, priority 1997, dated 2006)",
  "molecular_target": "wild-type Fyn (Homo sapiens, UniProt P06241)",
  "experiment": "Peptide phosphorylation assay with [γ-32P]ATP (Example 13)",
  "type": "biochemical",
  "settings": "purified kinase; read-out: IC50 for inhibition of wild-type Fyn",
  "source_text": "To identify compounds that would not inhibit any existing cellular kinases, Applicant screened the panel of synthetic pyrazolo pyramidine analogs (1-6) against two closely related purified tyrosine kinases, v-Src and Fyn, in a peptide phosphorylation assay using [γ-^32P]",
  "note": "Some results were stated once for a whole list of compounds, not compound by compound. At least one structure is not confirmed: it was looked up by name or label, or the drawing left a doubt.",
  "data": [
    {"smiles": "CC(C)(C)n1nc(-c2ccccc2)c2c(NC(=O)c3ccccc3)ncnc21", "note": "[Analog 3e]", "values": [
      {"measurement": "IC50", "value": "> 400", "unit": "µM"}
    ]}
  ]
}
